Laboratory results taken from paper PMC10932366.
These are yes or no findings as the source states them, for the method shown. In cells and extracts the contact can be indirect. Some results given as binding are weak or reduced against the parent protein; the word gives no strength.

Amino acid sequences for entries named in this document (tags omitted).
UniProt O94776: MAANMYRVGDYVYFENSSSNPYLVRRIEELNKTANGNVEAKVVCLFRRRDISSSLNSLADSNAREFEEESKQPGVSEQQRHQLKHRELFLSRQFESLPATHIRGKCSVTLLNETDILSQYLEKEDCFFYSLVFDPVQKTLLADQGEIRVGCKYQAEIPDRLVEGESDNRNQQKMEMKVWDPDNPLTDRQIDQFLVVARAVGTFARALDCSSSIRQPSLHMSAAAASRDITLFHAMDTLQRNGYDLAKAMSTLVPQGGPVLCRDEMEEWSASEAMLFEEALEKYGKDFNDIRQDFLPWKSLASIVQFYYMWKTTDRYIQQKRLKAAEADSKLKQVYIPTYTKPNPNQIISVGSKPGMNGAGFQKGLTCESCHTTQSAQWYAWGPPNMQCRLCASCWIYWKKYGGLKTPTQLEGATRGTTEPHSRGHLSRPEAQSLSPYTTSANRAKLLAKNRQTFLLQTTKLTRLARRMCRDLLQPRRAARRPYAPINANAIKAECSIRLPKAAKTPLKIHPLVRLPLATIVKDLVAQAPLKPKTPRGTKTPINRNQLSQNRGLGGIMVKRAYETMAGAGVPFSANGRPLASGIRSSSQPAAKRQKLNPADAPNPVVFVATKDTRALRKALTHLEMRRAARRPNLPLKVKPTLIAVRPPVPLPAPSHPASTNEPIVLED

Biological target: metastasis-associated protein 2 (MTA2) (human (endogenous in AGS and MKN-45)) (UniProt O94776)
Test: co-IP; Co-IP in AGS and MKN-45 cells; also in cells with UCHL3 knockdown or overexpression (Figure 6B,C) and with empty vector or LV-circMTA2 (Figure 6E); no co-IP protocol in the methods

B1: ubiquitin carboxyl-terminal hydrolase L3 (UCHL3) (enzyme, UniProt P15374 1-230)
chain: MEGQRWLPLEANPEVTNQFLKQLGLHPNWQFVDVYGMDPELLSMVPRPVCAVLLLFPITEKYEVFRTEEEEKIKSQGQDVTSSVYFMKQTISNACGTIGLIHAIANNKDKMHFESGSTLKKFLEESVSMSPEERARYLENYDAIRVTHETSAHEGQTEAPSIDEKVDLHFIALVHVDGHLYELDGRKPFPINHGETSDETLLEDAIEVCKKFMERDPDELRFNAIALSAA
- binding: binds
